The chains are these.
B1: il2ra_site2_2erj_normal_mot_HHH_b2_01353_af2_000000049_0001_23_39_H_._HHH_b2_08022_af2_0001_0000200007_0000001_0 (protein)
chain: SSSDEEEKVERLIEEAEELLKEGNPEEALRVLRRAAELAFRLNNEELFSAIAELTEEIARRSSSS
B2: il2ra_site2_3nfp_normal_mot_HHH_b2_05281_000000198_0001_39_56_H_._HHH_b1_08050_af2_0001_0000300011_0000001_0 (protein)
chain: SSSSSEELEELLRELEELLKKGDEEEFRRLLAEIVHLAFKLRDPRIFYLVAELAFEFHQRESSSS
B3: il2ra_site1_2b5i_sap_10_mot_HHH_b1_08745_af2_000000166_0001_39_57_H_._67a4efabeed6c13c80d2eeecdf405411_0001_0001_0000200015_0000001_0_0001_af2pred_dldesign_0_af … (protein)
chain: SSSSSDPEEVRRRVEELIERARELADPAEAARVLFEALYVARAGRDEELIAEVEAVYKELSSSSS
B4: il2ra_site1_2b5i_sap_16_mot_2cbe48e66a1f39b3fed734b245ab0a04_0001_000000015_0001_17_31_H_._HHH_b2_01962_af2_0001_0000200007_0000001_0_0001_af2pred_dldesign_0_af … (protein)
chain: SSSSSDPVAEVEALIERARALHAAGRRREALAALDEAYKLADALNDEELADRIFDLAKELSSSSS
B5: il2ra_site2_2erj_normal_mot_HHH_b2_01204_af2_000000056_0001_19_34_H_._HHH_b2_07712_0001_0000100005_0000001_0 (protein)
chain: SSSSSSDEERVEELLERAKEIEDLREAYKLLVEALRIASESNNDELQELIAEVFEELASSSSSSS
B6: il2ra_site1_2b5i_normal_mot_9ebc464cd7f6471d5ebf9a8082ac34f1_0001_af2_000000289_0001_54_65_H_._HHH_b2_05733_0001_0000300009_0000001_0_af2pred_dldesign_0_af2pred (protein)
chain: SSSSAEKGRRARELAEAAEEAWKKGDKEELEKLLEELRKLAEETKDKFLKLLVEQIEAELSSSSS
B7: il2ra_site1_1z92_sap_21_mot_HHH_b2_04969_af2_000000243_0001_39_51_H_._d6c57d4070daa34a689ce99642eedc3a_0001_af2_0001_0000200006_0000001_0_0001 (protein)
chain: SSSSSSEEELVEQVLELFHEAARIQDRREVRRLLEEALELAREANNPSLEKDVEKYLEFLSSSSS
B8: il2ra_site1_3nfp_normal_mot_HHH_b2_06121_000000007_0001_22_38_H_._HHH_b2_01497_af2_0001_0000100013_0000001_0_af2pred_0001_af2pred_1_swapped (protein)
chain: SSSSSEVEEEVQKLLEEAKELDEKGNSEEARKVAERAFELIRETGDDELFRLLMEWVKKNSSSSS
B9: il2ra_site2_2erj_sap_19_mot_HHH_b1_05749_af2_000000010_0001_23_39_H_._HHH_b2_05247_0001_0000300017_0000001_0_0001 (protein)
chain: SSSDEELRELYELAEEAIRLIAENDPEEAKKVVEELEELAREVDSKNAEEIAEALEELVRRLKSS
B10: il2ra_site1_2b5i_normal_mot_HHH_b2_06952_000000244_0001_39_53_H_._HHH_b2_05445_0001_0000100001_0000001_0_af2pred_dldesign_0_af2pred (protein)
chain: SSSSNVELRKEVHELLLKLNDLSEEERKKALEKAEELAKEAKNPGLLKRVETYRKLLESLSSSSS
B11: il2ra_site1_2b5i_sap_11_mot_HHH_b2_01981_af2_000000043_0001_1_18_H_._HHH_b1_00216_0002_0000800034_0000001_1_0001_af2pred_dldesign_0_af2pred (protein)
chain: SSSSSPEEEAAFEAALAAIRALAKEDRRAALLALNELYKEVAEKGLEELEDRLYELAKELSSSSS
B12: il2ra_site1_2b5i_normal_mot_22370d59370c406a0c205a431f537cfa_0001_af2_000000141_0001_1_31_H_._HHH_b2_04268_af2_0001_0000700031_0000001_0 (protein)
chain: SSSSSREEAHKVSEVIWRLIEELGLSEEDEHILTRLAVRLLWRGVSEEEIEELLEEEAKRLSSSS
B13: il2ra_site1_3nfp_normal_mot_HHH_b1_00233_000000159_0001_1_17_H_._HHH_b1_02182_0001_0000300006_0000001_0 (protein)
chain: SSSSTEISKIVLRLAEEFNLSHEAAEKLIRLAARLQLRGVSEEEIEELLEELAKELREELSSSSS
B14: il2ra_site2_3nfp_sap_20_mot_HHH_b2_07840_000000026_0001_18_34_H_._HHH_b2_00723_0001_0000100001_0000001_0_0001_af2pred_0001_af2pred (protein)
chain: SSSSSEEVEELIEEVKELLKKGDVEEAERVLQKAALLAREDGDEKLFNLLHELEEEVKRLKSSSS
B15: il2ra_site2_3nfp_sap_15_mot_HHH_b2_06150_000000230_0001_39_53_H_._HHH_b2_00543_0001_0000100010_0000001_0_0001_af2pred_0001_af2pred_1 (protein)
chain: SSSSDEEEREELEELLEEAKKIEDEEEVREILSRASELARELNDPELAQLVAEVLAELADSSSSS
B16: il2ra_site2_3nfp_normal_mot_HHH_b1_00660_af2_000000090_0001_40_57_H_._HHH_b1_00954_0001_0000100002_0000001_0 (protein)
chain: SSSSDLEERLRELLEELEELVEEGDKERFREVAQEVIELVYENNDFEAFALLQELRALIASSSSS
B17: il2ra_site1_3nfp_normal_mot_HHH_b2_02053_000000240_0001_1_20_H_._8b3018496bece20695a4731cc719293d_0001_1_af2_0001_0000600031_0000001_0_af2pred_0001_af2pred_swap … (protein)
chain: GPRAAKILVRRALEENSPRALRRILEDLERNLGDPEKAERLLSELIAEVLKVPPEEAEKIVEEVK
B18: il2ra_site2_3nfp_sap_22_mot_HHH_b1_04312_000000268_0001_22_39_H_._HHH_b1_01863_af2_0001_0000200011_0000001_0_0001_af2pred_0001_1_af2pred_swapped (protein)
chain: SSSSSSEVEEEIEELIERAKRTPDPREAFLLLLLALRLAEELNDPELLREVRELLRELRSSSSSS

Some of the results follow.

This assay has as its target il2ra, P01589. In words: yeast display titration.
As to B1, the “apparent Kd” value is “inactive: no binding seen”.

With B2, the apparent Kd was inactive: > 589 nM.

Take B3: the “apparent Kd” value was “inactive: no binding seen”.

Take B4: the “apparent Kd” value is “inactive: no binding seen”.

For the molecule B5, the “apparent Kd” value is “inactive: no binding seen”.

In the case of B6, the “apparent Kd” value is “inactive: no binding seen”.

Take B7: the “apparent Kd” value was “inactive: no binding seen”.

As for B8, the “apparent Kd” value was “inactive: no binding seen”.

Turning to B9, the “apparent Kd” value was “inactive: no binding seen”.

For the molecule B10, the apparent Kd was inactive: > 1170 nM.

As for B11, the “apparent Kd” value was “inactive: no binding seen”.

Consider B12, for which the “apparent Kd” value was “inactive: no binding seen”.

Consider B13, for which the “apparent Kd” value is “inactive: no binding seen”.

With B14, the “apparent Kd” value is “inactive: no binding seen”.

As to B15, the “apparent Kd” value was “inactive: no binding seen”.

B16: the “apparent Kd” value was “inactive: no binding seen”.

Turning to B17, the “apparent Kd” value was “inactive: no binding seen”.

Turning to B18, the “apparent Kd” value was “inactive: no binding seen”.

The values above are taken from paper PMC10163288.
